Results: article PMC5155164
Results are given in words; binding and its absence hold for the method and conditions named. In cells and extracts the contact can be indirect. Binding calls can cover weak binding; strength is not graded here.

Chains of the proteins cited; added tags and fusions are not shown. Lines headed by an entry give the natural chain unless they say otherwise; changes in a name come on top.
UniProt P42858: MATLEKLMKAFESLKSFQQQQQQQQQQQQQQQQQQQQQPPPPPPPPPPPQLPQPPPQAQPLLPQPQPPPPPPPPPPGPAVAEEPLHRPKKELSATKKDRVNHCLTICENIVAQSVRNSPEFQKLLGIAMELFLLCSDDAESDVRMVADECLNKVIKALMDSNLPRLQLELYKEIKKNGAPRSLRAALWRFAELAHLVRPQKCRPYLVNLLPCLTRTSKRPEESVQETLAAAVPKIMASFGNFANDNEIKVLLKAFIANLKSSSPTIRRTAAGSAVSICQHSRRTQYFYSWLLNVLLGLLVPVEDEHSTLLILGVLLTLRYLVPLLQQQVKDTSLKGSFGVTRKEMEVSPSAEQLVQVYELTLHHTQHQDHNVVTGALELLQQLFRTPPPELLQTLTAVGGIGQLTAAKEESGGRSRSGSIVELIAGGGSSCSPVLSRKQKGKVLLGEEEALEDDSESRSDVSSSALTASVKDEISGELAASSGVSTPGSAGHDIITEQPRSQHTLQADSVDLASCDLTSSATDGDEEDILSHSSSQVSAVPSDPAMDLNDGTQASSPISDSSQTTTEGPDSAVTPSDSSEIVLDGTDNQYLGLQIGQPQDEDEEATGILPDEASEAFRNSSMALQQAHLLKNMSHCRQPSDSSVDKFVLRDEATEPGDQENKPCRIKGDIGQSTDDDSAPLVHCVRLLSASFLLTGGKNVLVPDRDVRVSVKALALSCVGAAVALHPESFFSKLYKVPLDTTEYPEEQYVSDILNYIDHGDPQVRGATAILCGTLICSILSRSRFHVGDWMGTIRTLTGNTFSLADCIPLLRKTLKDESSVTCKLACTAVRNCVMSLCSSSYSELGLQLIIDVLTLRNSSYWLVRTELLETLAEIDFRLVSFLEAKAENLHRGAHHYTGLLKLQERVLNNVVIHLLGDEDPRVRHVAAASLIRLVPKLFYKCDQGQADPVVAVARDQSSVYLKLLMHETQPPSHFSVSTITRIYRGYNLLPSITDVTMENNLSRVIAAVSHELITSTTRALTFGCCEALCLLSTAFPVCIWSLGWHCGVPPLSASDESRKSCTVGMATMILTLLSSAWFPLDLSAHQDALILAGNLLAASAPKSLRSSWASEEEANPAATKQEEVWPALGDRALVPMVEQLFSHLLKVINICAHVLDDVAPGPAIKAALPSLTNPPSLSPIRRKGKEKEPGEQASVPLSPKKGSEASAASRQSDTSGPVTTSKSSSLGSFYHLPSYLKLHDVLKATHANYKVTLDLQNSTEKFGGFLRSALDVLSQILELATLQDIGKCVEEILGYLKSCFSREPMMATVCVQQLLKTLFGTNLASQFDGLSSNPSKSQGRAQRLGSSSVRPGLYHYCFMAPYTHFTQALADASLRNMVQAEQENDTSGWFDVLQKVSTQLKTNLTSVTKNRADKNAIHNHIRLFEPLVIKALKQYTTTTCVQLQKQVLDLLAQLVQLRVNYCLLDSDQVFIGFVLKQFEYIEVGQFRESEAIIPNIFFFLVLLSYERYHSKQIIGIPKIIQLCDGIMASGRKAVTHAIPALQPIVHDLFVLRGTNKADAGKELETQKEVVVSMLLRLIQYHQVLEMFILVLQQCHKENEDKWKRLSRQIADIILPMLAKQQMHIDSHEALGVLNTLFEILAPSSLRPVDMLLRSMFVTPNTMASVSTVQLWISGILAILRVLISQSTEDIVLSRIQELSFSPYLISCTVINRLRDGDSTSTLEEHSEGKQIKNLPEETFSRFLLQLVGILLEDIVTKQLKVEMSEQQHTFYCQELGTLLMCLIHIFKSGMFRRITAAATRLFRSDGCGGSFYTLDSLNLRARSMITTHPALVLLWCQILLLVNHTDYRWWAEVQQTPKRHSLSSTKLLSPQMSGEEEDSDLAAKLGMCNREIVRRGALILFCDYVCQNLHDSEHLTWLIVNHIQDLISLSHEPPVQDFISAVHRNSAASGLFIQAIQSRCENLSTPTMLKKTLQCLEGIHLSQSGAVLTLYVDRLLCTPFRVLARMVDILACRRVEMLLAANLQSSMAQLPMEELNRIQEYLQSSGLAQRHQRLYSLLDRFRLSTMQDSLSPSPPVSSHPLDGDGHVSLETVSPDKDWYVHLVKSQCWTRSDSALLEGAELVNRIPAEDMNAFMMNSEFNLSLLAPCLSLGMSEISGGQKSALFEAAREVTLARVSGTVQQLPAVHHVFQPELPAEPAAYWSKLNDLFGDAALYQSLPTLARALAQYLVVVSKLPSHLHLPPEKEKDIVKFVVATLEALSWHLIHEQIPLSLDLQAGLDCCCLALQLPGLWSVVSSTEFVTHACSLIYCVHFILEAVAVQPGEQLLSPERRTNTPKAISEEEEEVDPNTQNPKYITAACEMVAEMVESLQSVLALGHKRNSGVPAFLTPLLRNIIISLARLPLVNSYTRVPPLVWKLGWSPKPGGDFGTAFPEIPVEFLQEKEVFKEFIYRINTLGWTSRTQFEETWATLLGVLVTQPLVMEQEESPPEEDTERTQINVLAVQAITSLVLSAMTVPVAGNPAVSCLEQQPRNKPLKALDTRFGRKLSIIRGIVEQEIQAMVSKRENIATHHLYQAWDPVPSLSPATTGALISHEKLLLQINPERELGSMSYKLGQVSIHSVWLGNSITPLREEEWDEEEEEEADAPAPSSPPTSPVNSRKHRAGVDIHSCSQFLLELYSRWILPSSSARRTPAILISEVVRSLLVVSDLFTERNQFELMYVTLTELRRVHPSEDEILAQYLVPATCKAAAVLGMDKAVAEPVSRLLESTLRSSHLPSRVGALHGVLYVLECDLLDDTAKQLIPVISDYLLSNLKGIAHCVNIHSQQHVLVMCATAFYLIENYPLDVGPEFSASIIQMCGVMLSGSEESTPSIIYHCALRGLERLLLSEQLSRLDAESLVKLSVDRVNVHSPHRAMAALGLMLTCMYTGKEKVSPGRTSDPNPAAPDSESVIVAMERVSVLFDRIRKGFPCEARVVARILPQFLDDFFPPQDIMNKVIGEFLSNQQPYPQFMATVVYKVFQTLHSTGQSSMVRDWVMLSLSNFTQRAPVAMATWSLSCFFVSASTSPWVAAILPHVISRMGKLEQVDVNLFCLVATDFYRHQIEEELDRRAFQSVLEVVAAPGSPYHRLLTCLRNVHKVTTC

Assays:
Assay in all cases: co-IP; HeLa cells transfected with GFP-vector or the GFP-tagged protein for 16 h (48 h for the Htt(1–548) constructs); GFP-tagged proteins pulled down with GFP-Trap_MA beads (Chromotek); endogenous CCT2 detected by blot
[1] = target: Htt(1–548)Q138-GFP (mutant HTT(1–548) tagged to GFP at its C terminus) (UniProt P42858)
[2] = target: Htt(1–548)Q15-GFP (WT HTT(1–548) tagged to GFP at its C terminus) (UniProt P42858)
N17-103Q-GFP = target: N17-103Q-GFP
N17-97QP-GFP = target: N17-97QP-GFP

Measured: binding

B1: CCT2 (protein, UniProt P78371 1-535)
chain: MASLSLAPVNIFKAGADEERAETARLTSFIGAIAIGDLVKSTLGPKGMDKILLSSGRDASLMVTNDGATILKNIGVDNPAAKVLVDMSRVQDDEVGDGTTSVTVLAAELLREAESLIAKKIHPQTIIAGWREATKAAREALLSSAVDHGSDEVKFRQDLMNIAGTTLSSKLLTHHKDHFTKLAVEAVLRLKGSGNLEAIHIIKKLGGSLADSYLDEGFLLDKKIGVNQPKRIENAKILIANTGMDTDKIKIFGSRVRVDSTAKVAEIEHAEKEKMKEKVERILKHGINCFINRQLIYNYPEQLFGAAGVMAIEHADFAGVERLALVTGGEIASTFDHPELVKLGSCKLIEEVMIGEDKLIHFSGVALGEACTIVLRGATQQILDEAERSLHDALCVLAQTVKDSRTVYGGGCSEMLMAHAVTQLANRTPGKEAVAMESYAKALRMLPTIIADNAGYDSADLVAQLRAAHSEGNTTAGLDMREGTIGDMAILGITESFQVKRQVLLSAAEAAEVILRVDNIIKAAPRKRVPDHHPC
binds: all assays above
